# Data taken from PubChem BioAssay AID540256 (National Center for Advancing Translational Sciences (NCATS), 2011).
# Among all 300,000 compounds or so, about 3,700 (1.2%) were called active. Inconclusive results, whose numbers are uncertain, are shown with a selection of clear calls. Calls follow the shape of the full dose curve; tested in HEK293 cells. Potencies of inconclusive entries are doubtful fits and often do not repeat.
# Experiment: qHTS for Inhibitors of binding or entry into cells for Lassa Virus; also: nearly all actives have a fitted effect of over 50% in size
# Details: Lassa virus pseudotype entry inhibition, cell reporter; series mostly up to 37.9 µM
# Potency is read from the fitted curve at half-maximal effect.
row,Compound,Potency
1,COC(=O)c1cccc(NC(=O)COC(=O)CSc2nc(C)cc(C)n2)c1,inactive
2,Cc1ccc2nc3c(c(N)c2c1)CCN3C,"inconclusive: 12.6 µM [activator, partial curve, poor fit]"
3,CC(=O)Nc1ccccc1-c1nc2ccccc2n(CC(=O)Nc2cccc(C(F)(F)F)c2)c1=O,"inconclusive: 11.2 µM [activator, partial curve, poor fit]"
4,CCCCC(C(=O)NC1CCCC1)N(Cc1ccco1)C(=O)Cn1nnc(-c2ccc(F)cc2)n1 (stereo unspecified),"inconclusive: 35.5 µM [inhibitor, single point]"
5,C[C@@H](C(=O)NCC1CC1)[C@@H]1C[C@@]1(C)[C@@H](NC(=O)OCc1ccccc1)c1ccccc1,"inconclusive: 20.6 µM [inhibitor, single point]"
6,CC1CCN(C(=O)COC(=O)c2ccccc2C(=O)c2ccccc2)CC1,"inconclusive: 0.794 µM [inhibitor, partial curve, poor fit]"
7,COc1ccc(-n2nc3cc(C)c(NC(C)=O)cc3n2)cc1,"inconclusive: 4.47 µM [inhibitor, full curve, poor fit]"
8,Cc1cc(-c2nnc(CSc3nnc(NC(=O)c4ccc(C(C)(C)C)cc4)s3)o2)ccc1[N+](=O)[O-],"inconclusive: 5.62 µM [inhibitor, single point]"
9,COc1ccc(C2c3cc(OC)c(OC)cc3CC(=O)N2c2ccc(C)c(F)c2)cc1 (stereo unspecified),"inconclusive: 3.16 µM [inhibitor, partial curve, poor fit]"
10,O=C(NCCCNC(=O)c1cc(Cl)ccc1Cl)c1cnccn1,inactive
11,COc1ccc(OC)c(Cc2nnc(CCC(=O)NCc3nc4ccccc4s3)o2)c1,inactive
12,O=C(CCCc1nc(-c2ccc(Cl)cc2)no1)Nc1cccnc1,"inconclusive: 29.1 µM [inhibitor, single point]"
13,C=CCc1ccccc1OCC(O)CN1CCN(c2ccccc2OC)CC1 (stereo unspecified),"inconclusive: 32.6 µM [inhibitor, single point]"
14,CSc1cccc(NC(=O)c2cnn3ccccc23)c1,"inconclusive: 3.16 µM [activator, partial curve, poor fit]"
15,COc1ccc(CCNC(=O)c2c(N)n(CCN3CCOCC3)c3nc4ccccc4nc23)cc1OC,active: 18.3 µM
16,O=C(CSc1nc2ccccc2n1Cc1ccccc1)N/N=C/c1ccco1,"inconclusive: 2.06 µM [activator, partial curve]"
17,CCOC(=O)c1sc(-c2cccs2)nc1C,"inconclusive: 6.31 µM [inhibitor, single point]"
18,Nc1nc2ccc(-c3nc4ccccc4o3)cc2s1,"inconclusive: 1.26 µM [activator, partial curve, poor fit]"
19,CCN(c1ccccc1)S(=O)(=O)c1c(-c2ccc(C)cc2)csc1C(=O)OC,"inconclusive: 35.5 µM [inhibitor, partial curve, poor fit]"
20,COc1ccc(-c2nc(C#N)c(N3CCCCCC3)o2)cc1OC,"inconclusive: 23.1 µM [inhibitor, single point]"
21,Nc1ccc(Cl)cc1C(=O)OCC(=O)NC1CCS(=O)(=O)C1 (stereo unspecified),"inconclusive: 4.47 µM [inhibitor, full curve, poor fit]"
22,CCCCCCCCCCCCCCCC[n+]1ccccc1,"inconclusive: 35.5 µM [inhibitor, single point]"
23,COc1ccc(/C=C/C(=O)Nc2ccc3nc(N4CCC(C)CC4)cc(C)c3c2)cc1,inactive
24,CCc1cccc(C)c1NC(=O)Cn1nc(C)c2nn(-c3ccc(Cl)cc3)c(C)c2c1=O,inactive

row,Compound,Potency
1,Cc1cc(=O)[nH]c(SCC(=O)Nc2nc(-c3ccccc3)c(-c3ccccc3)o2)n1,inactive
2,CCC1Oc2ccc(Cl)cc2N(CC(=O)NCCc2ccc(Cl)cc2)C1=O (stereo unspecified),inactive
3,O=C(Nc1ncc2c(n1)-c1ccccc1CC2)c1cccs1,inactive
4,Cc1cccc(NC(c2ccccc2F)c2ccc3ccc(C)nc3c2O)n1 (stereo unspecified),inactive
5,Fc1ccc(C(OCCN2CCCC2)c2ccc(F)cc2)cc1,inactive
6,Cc1cc(C)c(CN2CCC(CO)(CCOc3ccccc3)CC2)cc1C,"inconclusive: 17.8 µM [inhibitor, single point]"
7,COc1ccc(NCc2nnc(SCC(=O)Nc3nc(-c4ccccc4)cs3)n2-c2ccccc2)cc1,inactive
8,Cc1c(C(=O)C(=O)N2CCCc3ccccc32)c2ccccc2n1C,"inconclusive: 6.31 µM [inhibitor, single point]"
9,C[C@H]1[C@H](c2ccccc2)Oc2cc(Br)ccc2S(=O)(=O)N1Cc1ccc(Cl)cc1,"inconclusive: 9.95 µM [activator, single point]"
10,CCc1cccc(C)c1NC(=O)CSc1nnc(CCCOc2ccc(Cl)cc2Cl)n1C,"inconclusive: 20.6 µM [inhibitor, partial curve, poor fit]"
11,Cc1ccccc1/C=N\NC(=O)c1csnn1,inactive
12,Cc1ccc(/C=N\Nc2nc3ccc(Cl)cc3[nH]2)o1,"inconclusive: 1.41 µM [activator, partial curve, poor fit]"
13,CN(C)S(=O)(=O)c1cc(NC(=O)CSc2ncc(C(F)(F)F)cc2Cl)ccc1Cl,"inconclusive: 13 µM [inhibitor, single point]"
14,Cc1cccc(NC(=O)CCC(=O)OCc2ccc(Br)cc2)c1,"inconclusive: 23.1 µM [activator, partial curve, poor fit]"
15,COC(=O)c1coc(-c2ccc(C)cc2)c1C(=O)OC,"inconclusive: 14.1 µM [activator, partial curve, poor fit]"
16,CCN(c1ccc(C(O)(C(=O)OC)C(F)(F)F)cc1)S(=O)(=O)c1ccc(C)cc1 (stereo unspecified),"inconclusive: 2.91 µM [inhibitor, full curve, poor fit]"
17,Cc1cccc(NC(=O)Cn2nnc3ccccc32)c1,inactive
18,COc1ccc(OCCN2CCN(C(=O)c3ccc(OC)c(OC)c3)CC2)cc1,"inconclusive: 11.2 µM [inhibitor, partial curve]"
19,CN(C)c1cccc(C(=O)NCc2ccccc2)c1,inactive
20,CC(C)CC(OC(=O)c1ccco1)C(=O)NC1CCCCC1 (stereo unspecified),"inconclusive: 14.1 µM [activator, single point]"
21,COCCNC(=O)/C(C#N)=C/C=C/c1ccccc1[N+](=O)[O-],"inconclusive: 31.6 µM [inhibitor, single point]"
22,Cc1ccc(-c2cc(C(=O)N/N=C/C=C/c3ccco3)c3ccccc3n2)cc1C,"inconclusive: 5.01 µM [inhibitor, full curve, poor fit]"
23,CCOc1ccc(CN(C)C(=O)CCl)cc1,"inconclusive: 7.94 µM [inhibitor, partial curve, poor fit]"
24,O=C1OC(c2ccccc2)=C/C1=C/N1CCOCC1,inactive

row,Compound,Potency
1,COc1ccc(NC(=O)c2ccc([N+](=O)[O-])o2)cc1,inactive
2,Cc1ccc(C(=O)c2oc3ccccc3c2NC(=O)c2cc(-c3ccccc3O)n[nH]2)cc1,inactive
3,Cc1ccc(-c2nnc(Nc3ccc(C(=O)N(C)C)cc3)c3ccccc23)cc1S(=O)(=O)N(C)C,inactive
4,Cc1ccc(NC(=O)c2ccc3c(O)c(S(=O)(=O)c4ccccc4)c(=O)[nH]c3c2)cc1Cl,inactive
5,O=C(NN1CCOCC1)c1ccccc1Br,inactive
6,CC1=NN(c2ccc(C(F)(F)F)cn2)C(=O)C1,"inconclusive: 35.5 µM [inhibitor, single point]"
7,O=C(NCCN1CCOCC1)/C(=C\c1ccc(Br)cc1)NC(=O)c1cccs1,inactive
8,O=C(NC1CCCCC1)C(c1ccc2ncccc2c1)N(Cc1ccc(F)cc1)C(=O)c1cccs1 (stereo unspecified),"inconclusive: 2.06 µM [inhibitor, full curve]"
9,CCOc1ccccc1-c1ccc(C(=O)NCc2ccccc2)o1,active: 7.31 µM
10,COCC(C)n1c(C)cc(C(=O)CN2C(=O)NC(Cc3c[nH]c4ccccc34)C2=O)c1C (stereo unspecified),inactive
11,Cc1cc(Cl)ccc1OCc1nc(-c2ccc(O)cc2)n[nH]1,"inconclusive: 20.6 µM [inhibitor, partial curve, poor fit]"
12,COc1ccc(Nc2ncnc3c2nc2n3CCCCC2)cc1,inactive
13,Cc1ccc(C)c(N2CCN(C(=O)CCCOc3cc(=O)n(C)c4ccccc34)CC2)c1,"inconclusive: 29.1 µM [inhibitor, single point]"
14,Cc1ccc(-c2cc(-c3ccccc3)c(C#N)c(SCC(O)CS(=O)(=O)Cc3ccccc3)n2)cc1 (stereo unspecified),"inconclusive: 35.5 µM [inhibitor, single point]"
15,C#CCNC(=O)/C=C/c1ccc(OC)cc1,inactive
16,COc1ccc(F)cc1S(=O)(=O)Nc1cccc(-c2ccc(N3CCC(C)CC3)nn2)c1,"inconclusive: 35.5 µM [inhibitor, single point]"
17,Cc1nc2cc(NC(=O)c3ccc(S(=O)(=O)N(C)c4ccccc4)cc3)ccc2o1,inactive
18,O=C(CCc1c[nH]c2ccccc12)OCc1cccc([N+](=O)[O-])c1,inactive
19,O=C(NCC1OCCc2ccccc21)c1cc(COc2c(F)cccc2F)on1 (stereo unspecified),"inconclusive: 35.5 µM [inhibitor, single point]"
20,Cc1nc(-c2cc(C#N)c(=O)[nH]c2C)cs1,"inconclusive: 14.1 µM [activator, single point]"
21,COc1ccc(/C=N/OCC(=O)N=Nc2c(O)[nH]c3ccc(Br)cc23)cc1OC,inactive
22,C=CCN1C(=O)/C(=C/c2ccc(OC)cc2)S/C1=N/c1nccs1,"inconclusive: 20 µM [inhibitor, single point]"
23,COC(=O)c1c(-n2c(C)cc(C=O)c2C)sc2c1CCCC2,inactive

# Three records drawn at random from those above:
row,Compound,Potency
14,Cc1ccc(-c2cc(-c3ccccc3)c(C#N)c(SCC(O)CS(=O)(=O)Cc3ccccc3)n2)cc1 (stereo unspecified),"inconclusive: 35.5 µM [inhibitor, single point]"
15,C#CCNC(=O)/C=C/c1ccc(OC)cc1,inactive
3,Cc1ccc(-c2nnc(Nc3ccc(C(=O)N(C)C)cc3)c3ccccc23)cc1S(=O)(=O)N(C)C,inactive
